Source: doi:10.1371/journal.pone.0140310, primary screening data, rounded.

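Human melanoma cell lines in 1,536-well plates were treated with a pair of drugs for 72 h, then fixed, stained and imaged. The read-out is the fraction of cleaved-PARP-positive nuclei, in % of that fraction in the DMSO control; 200 means twice the control level of this apoptosis marker. Every drug was used at one fixed concentration, the higher of two screened. No replicate spread is given; individual values may be noisy. Basal and induced levels differ widely between cell lines.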 This is part of the screen, not chosen by result. An entry leaves out what has no value listed here. A dash means that no value is listed here.

All values are for the listed drug together with A-769662 (10000 nM): N#Cc1c(O)c2c(-c3ccc(-c4ccccc4O)cc3)csc2[nH]c1=O

Drug key:
FK866: O=C(/C=C/c1cccnc1)NCCCCC1CCN(C(=O)c2ccccc2)CC1 at 50 nM
VX-702: NC(=O)c1ccc(N(C(N)=O)c2c(F)cccc2F)nc1-c1ccc(F)cc1F at 2000 nM
erlotinib: C#Cc1cccc(Nc2ncnc3cc(OCCOC)c(OCCOC)cc23)c1 at 4000 nM
IMD-0354: O=C(Nc1cc(C(F)(F)F)cc(C(F)(F)F)c1)c1cc(Cl)ccc1O at 80 nM
everolimus: CO[C@H]1C[C@@H]2CC[C@@H](C)[C@@](O)(O2)C(=O)C(=O)N2CCCC[C@H]2C(=O)O[C@H]([C@H](C)C[C@@H]2CC[C@@H](OCCO)[C@H](OC)C2)CC(=O)[C@H](C)/C=C(\C)[C@@H](O)[C@@H](OC)C(=O)[C@H](C)C[C@H](C)/C=C/C=C/C=C/1C at 100 nM

| # | Cell line | IMD-0354 | FK866 | VX-702 | erlotinib | everolimus |
|---|---|---|---|---|---|---|
| 1 | WM3619 | 85.8 | 126 | 66.4 | 106 | 111 |
| 2 | SK-MEL-30 | 99.6 | 130 | 90.3 | 104 | 121 |
| 3 | IPC-298 | 39.7 | 739 | 79.3 | 79.0 | 89.5 |
| 4 | WM451Lu | 92.7 | 99.4 | 40.9 | 36.6 | 181 |
| 5 | RVH-421 | 107 | 377 | 105 | 204 | 56.4 |
| 6 | UACC-257 | 31.8 | 53.0 | 27.4 | 26.4 | 24.1 |
| 7 | G-361 | 23.3 | 9170 | 53.9 | 50.5 | 111 |
| 8 | A2058 | 44.4 | 92.5 | 99.9 | 110 | 37.0 |
| 9 | MZ2-MEL | 121 | 1500 | 47.4 | 80.7 | 77.5 |
| 10 | LOX IMVI | 68.6 | 141 | 20.4 | 71.8 | 111 |
| 11 | 501mel | 106 | 209 | 40.9 | 164 | 103 |
| 12 | SK-MEL-5 | 99.0 | 111 | 90.8 | 225 | 228 |
| 13 | LB2518-MEL | 31.4 | 716 | 93.1 | 91.8 | 140 |
| 14 | A101D | 103 | 375 | 44.3 | 178 | 167 |
| 15 | COLO 829 | 125 | 383 | 95.8 | 136 | 276 |
| 16 | WM3526 | 87.1 | 102 | 60.2 | 81.8 | 147 |
| 17 | SK-MEL-2 | 46.5 | 1230 | 71.8 | 99.0 | 105 |
| 18 | WM1745 | - | - | - | 146 | - |
| 19 | WM115 | 106 | 75.4 | 324 | 128 | 41.1 |
| 20 | WM1716 | 41.5 | 111 | 80.6 | 47.3 | 62.6 |
| 21 | MeWo | 41.8 | 60.7 | 108 | 105 | 21.0 |
| 22 | COLO 792 | 52.5 | 1110 | 46.7 | 128 | 157 |
| 23 | RPMI-7951 | 226 | 98.7 | 142 | 75.0 | 86.0 |
| 24 | COLO 800 | 137 | 767 | 79.6 | 70.6 | 118 |
| 25 | C32 | 86.4 | 101 | 81.3 | 86.4 | 187 |
| 26 | SK-MEL-28 | 218 | 93.1 | 131 | 165 | 89.3 |
| 27 | MEL-HO | 365 | 157 | 377 | 126 | 114 |
| 28 | UACC-62 | 164 | 139 | 149 | 55.5 | 438 |
| 29 | A375 | 103 | 12.3 | 57.8 | 29.2 | 100 |
| 30 | IST-MEL1 | 66.8 | 65.0 | 60.0 | 95.9 | 463 |

Some entries from above, unchanged:

{"cell line": "COLO 792", "IMD-0354": 52.5, "FK866": 1110, "VX-702": 46.7, "erlotinib": 128, "everolimus": 157}
{"cell line": "UACC-62", "IMD-0354": 164, "FK866": 139, "VX-702": 149, "erlotinib": 55.5, "everolimus": 438}